Laboratory results from patent US20240108662A1, “ENGINEERED CELLS FUNCTIONALIZED WITH IMMUNE CHECKPOINT MOLECULES AND USES THEREOF” (The University of North Carolina at Chapel Hill, priority 2020, published 2024).

Test: Proteomic analysis of native murine pancreata and decelled pancreatic ECM (Table 1)
Set-up: species or system mouse
Conditions: for Pancreatic ECM: Mean of log2(intensities): abundance of the listed protein in decelled pancreatic ECM; for Native pancreas tissue: Mean of log2(intensities): abundance of the listed protein in native murine pancreas tissue

Molecule | Pancreatic ECM: Mean of log2(intensities) [a.u.] | Native pancreas tissue: Mean of log2(intensities) [a.u.]
Q5SSZ5 (protein, UniProt Q5SSZ5 1-1440, looked up, full-length) MEDSHELDLTYVTERIIAVSFPASCSEESYLHSLQEVTRMLKCKHGDNYLVLNLSEKRYDLTKLNPKIMDVGWPELHAPPLDKMCTICKAQESWLNNDPQHVVVIHCRGGKGRIGVVISSYMHFTNVSASADQALDRFAMKKFYDDKISALMEPSQKRYVQFLSGLLSGAMKMNTSPLFLHFVIMHGVPSFDTGGACRPFLKLYQAMQPVYTSGIYNVGSENPSRIRIAIEPAQLLKGDIMVKCYHKKFRSATRDVIFRLQFHTGAVQGYGLLFGKEELDSACKDDRFPDYGKIELVFSATPEKIQGSEHLYSDQGVTVDYNTADPLIRWDSYENMSADGEVLHTQGPVDGSLYAKVRKKSASDTGIPSSPQGMPATSSPDHGDHTLSVSSDSGHSTASARTDKTEERLTPGARRGLSPQEKAELDQLLSGFGLEDSASSHKDMTDMRSKYSGTRHVVPAQVHVNGDAALKDRETDILDDEMPHHDLHSVDSLGTLSSSEGPQSTHLGPFTCLKSSQNSLLSDGFGNGVAEDHNGVLSPDLGLGVDTLYDRERMCGGREQKPLQPLLRKPSAPTPVQAYGQSNYSTQTWVRQQQMVAAHQYSFASDGEARLGSRSTVDNTGLAQPPPHIPVTPNRGASSRVAVQRGISNGPNPPDTQQLCPGKALQPRFQDDRVTNGVHQEPNTGSSPGSPTLDIDQSIEQLNRLILELDPTFEPIPTHLNALGISAVCPDGVGSGLRCSGRLDSVDGPGRSPGRQGDDPIGGRLRKLSIGQYDNDAASQVTFSKCGWGKAGVDPAPSLGSFSSPEDIKETVITAYPSDLNMIDGRIPNSKESSMCLTPSFPVSPETPYVKTSPRYPPFSPPEPQLSSPASLHKGREPRGCPEIISHTVGMSESPVGPKPTMLRADMPATPNFQQVFASSCTVSSNGPGQRRESPPSAERQWVESSPKSTLTLLGNSHPSESPLGTHEFCSSGKDSPGLPCFQSSELQASFHSHELSMSEPQGALPPAGSQTFLGFNTVTTATSVLPPGEDAGTLLVNSHGTSPAPGTPLLTTGAADNGFLPHNFLTVSPGASSHHSPGLQNQNVSLPGQPPLPEKKRASEGDRSLGSVSPSSSGFSSPHSGSTMSIPFPNVLPDFCKPSEVASPLPDSPNDKLVIVKFVQDTSKFWYKADISREQAIAMLKDKAPGSFIVRDSHSFRGAYGLAMKVATPPPSVLHLNKKAGDLSNELVRHFLIECTPKGVRLKGCSNEPYFGSLTALVCQHSITPLALPCKLLIPERDPLEEIAENSPQTAANSAAELLKQGAACNVWYLNSVEMESLTGHQAVQKALSMTLVQEPPPVSTVVHFKVSAQGITLTDNQRKLFFRRHYPVSSVIFCALDPQDRKWIKDGPSSKVFGFVARKQGSATDNVCHLFAEHDPEQPASAIVNFVSKVMIGSPKKI | 25.18 | 22.22
Q569Z5 (protein, UniProt Q569Z5 1-1032, looked up, full-length) MGRESRHYRKRSASRGRSGSRSRSRSPSDKRSKRGDDRRSRSRDRDRRRERSRSRDKRRSRSRDRKRLRRSRSRERDRSRERRRSRSRDRRRSRSRSRGRRSRSSSPGSKTKKTENRSRSKEKAEGGDSSKEKKKDKDDKEDEKEKDAGNFDQNKLEEEMRKRKERVEKWREEQRKKAMENIGELKKEIEEMKQGKKWSLEDDDDDEDDPAEAEKEGTEMEDEELDPLDAYMEEVKEEVKKFNMRSVKGGAGNEKKSGPTVTKVVTVVTTKKAVVDADKKKGELMENDQDAMEYSSEEEEVDLQTALTGYQTKQRKLLEPVDHGKIEYEPFRKNFYVEVPELAKMSQEEVNVFRLEMEGITVKGKGCPKPIKSWVQCGISMKILNSLKKHGYEKPTPIQTQAIPAIMSGRDLIGIAKTGSGKTIAFLLPMFRHIMDQRSLEEGEGPIAVIMTPTRELALQITKECKKFSKTLGLRVVCVYGGTGISEQIAELKRGAEIIVCTPGRMIDMLAANSGRVTNLRRVTYVVLDEADRMFDMGFEPQVMRIVDNVRPDRQTVMFSATFPRAMEALARRILSKPIEVQVGGRSVVCSDVEQQVIVIEEEKKFLKLLELLGHYQESGSVIIFVDKQEHADGLLKDLMRASYPCMSLHGGIDQYDRDSIINDFKNGTCKLLVATSVAARGLDVKHLILVVNYSCPNHYEDYVHRAGRTGRAGNKGYAYTFITEDQARYAGDIIKALELSGTAVPPDLEKLWSDFKDQQKAEGKIIKKSSGFSGKGFKFDETEQALANERKKLQKAALGLQDSDDEDAAVDIDEQIESMFNSKKRVKDMAAPGTSSVPAPTAGNAEKLEIAKRLALRINAQKNLGIESQVDVMQQATNAILRGGTILAPTVSAKTIAEQLAEKINAKLNYVPLEKQEEERQEGGQSESFKRYEEELEINDFPQTARWKVTSKEALQRISEYSEAAITIRGTYFPPGKEPKEGERKIYLAIESANELAVQKAKAEITRLIKEELIRLQNSYQPTNKGRYKVL | 25.20 | 22.38
P59326 (protein, UniProt P59326 1-559, looked up, full-length) MSATSVDPQRTKGQDNKVQNGSLHQKDAVHDNDFEPYLSGQSNPSNSYPSMSDPYLSSYYPPSIGFPYSLSEAPWSTAGDPPIPYLTTYGQLSNGDHHFMHDAVFGQPGGLGNNIYQHRFNFFPENPAFSAWGTSGSQGQQTQSSAYGSSYTYPPSSLGGTVVDGQTGFHSDSLNKAPGMNSLEQGMVGLKIGDVTTSAVKTVGSVVNSVALTGVLSGNGGTNVNMPVSKPTSWAAIASKPAKPQPKMKTKSGPIVGGALPPPPIKHNMDIGTWDNKGPAPKASAPQQTPSPQAAPQPQQVAQPLPVQPPPLVQPQYQSPQQPLQPRWVAPRNRNAAFGQSGGANSDSNSVGNAQPTSAPSVESHPVLEKLKAAHSYNPKEFDWNLKSGRVFIIKSYSEDDIHRSIKYSIWCSTEHGNKRLDGAFRSMSSKGPVYLLFSVNGSGHFCGVAEMKSPVDYGTSAGVWSQDKWKGKFDVKWIFVKDVPNNQLRHIRLENNDNKPVTNSRDTQEVPLEKAKQVLKIIASYKHTTSIFDDFSHYEKRQEEEEVVRKERQNRNKQ | 24.19 | 21.39
Q3U821 (protein, UniProt Q3U821 1-830, looked up, full-length) MVEEGVRVVRCGGSRLNFRRAVFSVDSKYIFCVSGDFVKVYSTTTEECVHILHGHTDLVSGILVNPSNHLQLYSCSFDGTIKLWDYVDGILIKTFTIGPKLHAFFIPLHAEDSVFLTISKEEPDIFQLVSVKLPKSTSQDVEARQLTFVLDYINRSPKCIAFGNEGEYVAAVRDFYLSVYFFKKKKTCNFTLPSTKNKKNAKNKFTCVACHPKEDCIASGHMDGKIRLWRNFHSDQKYTYTCLHWHHDMVMDLAFTVTGTSLLSGGRECVLVEWRDGSEKNKEFLPRLGSSIEHISVSPAGDLFCTSHSDNKITVIHRNLDASAVIQGLVKDRSISTGLMVDPRTKALVLNGKPGHLQFYSLQGDKQLYNLDIIQQEYINDEGLTQTELTKAAFGCSGTWLATVEQRQENENELELQMKLWNYSKKTQGFVLNTKIAMPHDDHITALCFNNAESYEKPILVTASRDGHFKVWILTDDSDIYKKAIAWTCDFVGSYHKYQATNCCFSEDGSLLAVSFEEIVTIWDSQTWELKCTFCQRAGKIRHLCFGRLTCSKYLLGTTDNGILCCWNLLSCSIQWSAKLNVRVMEPDPYSDHVAAVAQSSAGSDLFVFKPSEPRPLYIQKNVSREEVQWGVFVPRDVPESFTSETHQWLNRSQFYFLTKSQSLLTFSTKSPEEKLTPTSKQLLAEESLPTTPFSFILGKHRQQQGAKLTETSENELVQLPLTENIPAITELLHTPAHVLPSASFLCSLFVNSLLLSKETKSAEEVPDDVDMEGNKESDDSDEEYDLTEKDKETNNNTDLGEDAIHQLSKSEEKELRKFRKVDYSWLTAL | 24.00 | 21.24
O35678 (protein, UniProt O35678 1-303, looked up, full-length) MPEASSPRRTPQNVPYQDLPHLVNADGQYLFCRYWKPSGTPKALIFVSHGAGEHCGRYDELAHMLKGLDMLVFAHDHVGHGQSEGERMVVSDFQVFVRDVLQHVDTIQKDYPDVPIFLLGHSMGGAISILVAAERPTYFSGMVLISPLVLANPESASTLKVLAAKLLNFVLPNMTLGRIDSSVLSRNKSEVDLYNSDPLVCRAGLKVCFGIQLLNAVARVERAMPRLTLPFLLLQGSADRLCDSKGAYLLMESSRSQDKTLKMYEGAYHVLHRELPEVTNSVLHEVNSWVSHRIAAAGAGCPP | 24.61 | 21.79
O54825 (protein, UniProt O54825 1-436, looked up, full-length) MPKFKVTRGASNREKHAPLAEQILAGNAVRAGTREKRRGREVEEEEEYVGPRLSRRILQQARQQQEELETDHGAGDRSAPPRERATRLGPGLPQDGSDEEDEEWPTLEKAAKMAGVDHQAEVIVDPEDERAIEMFMNKNPPVRRTLADIIMEKLTEKQTEVETVMSEVSGFPMPQLDPRVLEVYRGVREVLCKYRSGKLPKAFKVIPALSNWEQILYVTEPEAWTAAAMYQATRIFASNLKERMAQRFYNLVLLPRVRDDIAEYKRLNFHLYMALKKALFKPGAWFKGILIPLCESGTCTLREAIIVGSIITKCSIPVLHSSAAMLKIAEMEYSGANSIFLRLLLDKKYALPYRVLDALVFHFLAFRTEKRQLPVLWHQCLLTLAQRYKADLATEQKEALLELLRLQPHPQLSPEIRRELQSAVPRDVEDGGVTME | 24.23 | 21.26
